Values quoted from earlier work in paper PMC2774688, “Cellular Ser/Thr-Kinase Assays Using Generic Peptide Substrates” (Current Chemical Genomics, 2008).

Tested on: PI3K
Conditions: read-out: IC50 in vitro potency on PI3K, no reference given; cited from earlier work

## CN[C@@H]1C[C@H]2O[C@@](C)([C@@H]1OC)n1c3ccccc3c3c4c(c5c6ccccc6n2c5c31)C(=O)NC4 [Staurosporine]
  IC50: ~9 µM
